From the supplement of paper PMC12819154, “High-throughput peptide-centric local stability assay extends protein–ligand identification to membrane proteins, tissues and bacteria” (Nature Structural & Molecular Biology, 2025)
The list shows a part of the results. Small differences around the control level are noise.

The chains behind the UniProt entries cited, without tags or fusion partners. Where a name states a change or a piece, a line headed by the entry shows the natural chain unless it says otherwise.
UniProt Q8VE22: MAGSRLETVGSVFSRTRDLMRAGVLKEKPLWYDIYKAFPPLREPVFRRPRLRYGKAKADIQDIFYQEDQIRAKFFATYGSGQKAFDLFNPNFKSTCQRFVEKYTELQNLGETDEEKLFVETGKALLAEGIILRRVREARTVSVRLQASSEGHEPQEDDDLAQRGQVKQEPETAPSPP
UniProt Q8VDQ8: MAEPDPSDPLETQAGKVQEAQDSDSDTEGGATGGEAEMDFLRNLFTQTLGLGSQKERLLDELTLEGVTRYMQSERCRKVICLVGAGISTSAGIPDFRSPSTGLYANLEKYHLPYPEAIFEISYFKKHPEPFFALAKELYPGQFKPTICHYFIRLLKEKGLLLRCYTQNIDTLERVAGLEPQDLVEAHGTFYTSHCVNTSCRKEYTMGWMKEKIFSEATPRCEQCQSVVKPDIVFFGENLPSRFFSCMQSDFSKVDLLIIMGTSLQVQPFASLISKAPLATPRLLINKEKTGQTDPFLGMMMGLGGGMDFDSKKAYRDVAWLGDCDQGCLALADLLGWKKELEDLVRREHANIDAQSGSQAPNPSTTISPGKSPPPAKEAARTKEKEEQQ
UniProt Q8VEJ1: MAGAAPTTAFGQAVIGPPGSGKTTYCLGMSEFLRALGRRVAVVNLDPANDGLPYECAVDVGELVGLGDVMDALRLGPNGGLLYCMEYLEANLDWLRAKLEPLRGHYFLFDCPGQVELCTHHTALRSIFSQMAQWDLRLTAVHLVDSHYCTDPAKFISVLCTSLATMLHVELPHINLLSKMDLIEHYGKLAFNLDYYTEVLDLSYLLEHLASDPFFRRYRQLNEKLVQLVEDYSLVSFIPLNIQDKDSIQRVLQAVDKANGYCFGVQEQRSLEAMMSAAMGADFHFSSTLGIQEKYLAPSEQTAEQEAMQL
UniProt Q8VCI0: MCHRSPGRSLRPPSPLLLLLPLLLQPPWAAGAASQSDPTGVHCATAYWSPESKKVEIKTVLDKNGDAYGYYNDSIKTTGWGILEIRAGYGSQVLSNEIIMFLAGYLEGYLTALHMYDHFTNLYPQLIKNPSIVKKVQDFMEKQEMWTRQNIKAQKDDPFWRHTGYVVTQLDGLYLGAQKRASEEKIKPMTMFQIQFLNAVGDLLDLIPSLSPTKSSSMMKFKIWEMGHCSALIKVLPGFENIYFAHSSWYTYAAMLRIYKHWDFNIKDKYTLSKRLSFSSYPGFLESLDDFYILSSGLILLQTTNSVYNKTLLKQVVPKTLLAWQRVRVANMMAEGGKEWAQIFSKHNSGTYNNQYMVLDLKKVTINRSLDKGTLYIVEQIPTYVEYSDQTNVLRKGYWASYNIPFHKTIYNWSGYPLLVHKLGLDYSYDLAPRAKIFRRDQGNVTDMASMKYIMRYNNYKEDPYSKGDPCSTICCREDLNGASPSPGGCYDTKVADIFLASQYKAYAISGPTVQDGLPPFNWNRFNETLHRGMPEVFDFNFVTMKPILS
UniProt Q8VCY6: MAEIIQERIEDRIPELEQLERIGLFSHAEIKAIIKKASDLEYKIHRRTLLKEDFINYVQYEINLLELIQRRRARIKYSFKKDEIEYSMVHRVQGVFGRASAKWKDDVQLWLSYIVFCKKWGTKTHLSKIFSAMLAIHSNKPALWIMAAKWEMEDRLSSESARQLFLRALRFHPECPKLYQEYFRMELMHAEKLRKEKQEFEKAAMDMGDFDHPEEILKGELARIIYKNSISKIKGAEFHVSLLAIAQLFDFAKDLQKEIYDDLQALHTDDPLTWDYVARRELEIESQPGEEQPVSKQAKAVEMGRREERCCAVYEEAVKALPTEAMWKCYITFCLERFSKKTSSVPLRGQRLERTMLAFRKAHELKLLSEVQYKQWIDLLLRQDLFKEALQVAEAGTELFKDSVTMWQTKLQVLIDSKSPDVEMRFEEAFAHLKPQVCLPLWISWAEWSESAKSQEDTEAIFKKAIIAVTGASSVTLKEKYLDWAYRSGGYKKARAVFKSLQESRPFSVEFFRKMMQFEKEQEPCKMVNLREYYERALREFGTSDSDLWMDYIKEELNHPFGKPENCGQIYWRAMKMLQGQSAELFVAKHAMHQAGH
UniProt Q8VEH5: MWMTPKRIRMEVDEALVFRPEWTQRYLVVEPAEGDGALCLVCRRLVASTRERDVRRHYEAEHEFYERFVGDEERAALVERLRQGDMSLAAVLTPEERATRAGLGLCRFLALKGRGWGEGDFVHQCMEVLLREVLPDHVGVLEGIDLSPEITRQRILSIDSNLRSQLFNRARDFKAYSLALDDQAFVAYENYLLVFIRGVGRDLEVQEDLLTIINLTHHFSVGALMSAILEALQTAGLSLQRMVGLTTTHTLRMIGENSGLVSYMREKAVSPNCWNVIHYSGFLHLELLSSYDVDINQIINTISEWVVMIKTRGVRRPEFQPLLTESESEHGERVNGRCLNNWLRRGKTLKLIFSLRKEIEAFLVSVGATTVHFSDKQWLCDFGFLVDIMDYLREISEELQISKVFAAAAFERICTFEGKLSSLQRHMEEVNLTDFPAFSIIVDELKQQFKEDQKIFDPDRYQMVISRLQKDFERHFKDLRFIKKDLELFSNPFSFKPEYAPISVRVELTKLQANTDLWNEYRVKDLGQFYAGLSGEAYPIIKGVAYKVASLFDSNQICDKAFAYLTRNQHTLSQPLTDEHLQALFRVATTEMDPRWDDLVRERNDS
UniProt Q8VD33: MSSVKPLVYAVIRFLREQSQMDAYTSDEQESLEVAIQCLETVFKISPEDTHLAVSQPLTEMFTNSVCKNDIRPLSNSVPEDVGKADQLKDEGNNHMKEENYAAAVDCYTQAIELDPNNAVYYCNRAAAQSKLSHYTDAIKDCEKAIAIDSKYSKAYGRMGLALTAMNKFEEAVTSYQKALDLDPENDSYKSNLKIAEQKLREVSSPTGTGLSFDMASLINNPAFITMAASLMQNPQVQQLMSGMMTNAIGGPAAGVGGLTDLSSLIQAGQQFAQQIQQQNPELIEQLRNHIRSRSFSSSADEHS
UniProt Q8R3N1: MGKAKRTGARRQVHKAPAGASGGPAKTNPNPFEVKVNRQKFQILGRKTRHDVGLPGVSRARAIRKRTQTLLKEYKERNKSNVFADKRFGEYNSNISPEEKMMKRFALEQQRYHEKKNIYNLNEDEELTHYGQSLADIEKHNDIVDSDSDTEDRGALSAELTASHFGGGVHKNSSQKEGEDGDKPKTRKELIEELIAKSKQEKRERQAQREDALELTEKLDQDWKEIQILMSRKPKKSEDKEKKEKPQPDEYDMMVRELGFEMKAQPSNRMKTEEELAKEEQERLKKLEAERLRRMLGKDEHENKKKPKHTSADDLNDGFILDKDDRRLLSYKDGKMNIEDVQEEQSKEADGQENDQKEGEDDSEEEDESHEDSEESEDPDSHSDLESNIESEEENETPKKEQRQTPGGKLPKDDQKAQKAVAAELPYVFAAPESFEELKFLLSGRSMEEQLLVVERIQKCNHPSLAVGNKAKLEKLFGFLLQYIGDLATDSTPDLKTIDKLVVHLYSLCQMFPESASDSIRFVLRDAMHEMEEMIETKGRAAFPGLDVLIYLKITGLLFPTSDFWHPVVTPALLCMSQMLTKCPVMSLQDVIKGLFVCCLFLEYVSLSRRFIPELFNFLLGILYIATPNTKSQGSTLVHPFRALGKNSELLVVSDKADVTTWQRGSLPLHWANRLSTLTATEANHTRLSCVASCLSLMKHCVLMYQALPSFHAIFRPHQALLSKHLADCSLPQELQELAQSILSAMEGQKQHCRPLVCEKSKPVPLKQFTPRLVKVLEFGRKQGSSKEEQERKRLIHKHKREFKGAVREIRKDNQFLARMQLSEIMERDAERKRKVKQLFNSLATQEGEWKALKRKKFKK
UniProt Q8VC49: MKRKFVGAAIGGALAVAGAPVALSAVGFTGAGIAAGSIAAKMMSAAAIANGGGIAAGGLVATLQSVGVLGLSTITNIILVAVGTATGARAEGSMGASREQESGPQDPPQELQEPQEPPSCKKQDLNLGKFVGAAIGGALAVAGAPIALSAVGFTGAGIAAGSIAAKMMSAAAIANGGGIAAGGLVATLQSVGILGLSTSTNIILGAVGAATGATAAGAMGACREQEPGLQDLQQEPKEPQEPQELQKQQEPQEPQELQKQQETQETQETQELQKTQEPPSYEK
UniProt Q8R331, whole entry: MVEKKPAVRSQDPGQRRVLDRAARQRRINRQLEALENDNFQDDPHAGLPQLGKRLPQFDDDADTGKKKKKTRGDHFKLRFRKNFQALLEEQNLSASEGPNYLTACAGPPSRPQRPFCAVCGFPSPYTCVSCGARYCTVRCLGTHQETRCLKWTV
UniProt Q8VC04: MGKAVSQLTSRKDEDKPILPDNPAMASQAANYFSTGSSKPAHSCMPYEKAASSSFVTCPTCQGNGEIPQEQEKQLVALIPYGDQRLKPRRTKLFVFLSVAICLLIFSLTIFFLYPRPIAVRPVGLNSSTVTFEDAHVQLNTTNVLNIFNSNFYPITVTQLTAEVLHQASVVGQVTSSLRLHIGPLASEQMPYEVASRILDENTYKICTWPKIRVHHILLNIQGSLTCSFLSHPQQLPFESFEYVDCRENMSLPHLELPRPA
UniProt Q8R2U2: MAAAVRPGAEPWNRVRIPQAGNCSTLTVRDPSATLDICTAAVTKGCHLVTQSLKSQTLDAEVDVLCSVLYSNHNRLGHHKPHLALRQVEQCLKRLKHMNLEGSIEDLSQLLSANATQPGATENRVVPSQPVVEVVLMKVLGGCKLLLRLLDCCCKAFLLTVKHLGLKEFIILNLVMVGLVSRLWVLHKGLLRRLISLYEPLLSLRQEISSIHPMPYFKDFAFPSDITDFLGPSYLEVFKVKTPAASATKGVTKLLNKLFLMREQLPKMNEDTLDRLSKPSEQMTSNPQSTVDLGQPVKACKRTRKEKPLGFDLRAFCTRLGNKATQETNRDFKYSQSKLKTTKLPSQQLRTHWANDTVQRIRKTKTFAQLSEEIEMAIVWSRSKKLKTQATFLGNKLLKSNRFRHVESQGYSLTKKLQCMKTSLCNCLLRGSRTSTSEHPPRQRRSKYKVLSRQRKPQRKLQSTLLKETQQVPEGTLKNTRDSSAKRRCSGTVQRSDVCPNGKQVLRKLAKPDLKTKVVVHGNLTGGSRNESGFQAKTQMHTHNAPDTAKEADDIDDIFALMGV
UniProt Q8VCI5: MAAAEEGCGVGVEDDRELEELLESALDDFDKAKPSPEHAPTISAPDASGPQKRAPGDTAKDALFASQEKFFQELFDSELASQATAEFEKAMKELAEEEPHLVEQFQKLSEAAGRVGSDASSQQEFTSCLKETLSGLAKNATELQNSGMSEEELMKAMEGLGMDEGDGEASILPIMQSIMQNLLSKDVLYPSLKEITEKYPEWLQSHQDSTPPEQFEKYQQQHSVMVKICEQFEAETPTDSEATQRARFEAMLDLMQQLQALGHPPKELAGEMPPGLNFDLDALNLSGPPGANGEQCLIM
UniProt Q8VBT6: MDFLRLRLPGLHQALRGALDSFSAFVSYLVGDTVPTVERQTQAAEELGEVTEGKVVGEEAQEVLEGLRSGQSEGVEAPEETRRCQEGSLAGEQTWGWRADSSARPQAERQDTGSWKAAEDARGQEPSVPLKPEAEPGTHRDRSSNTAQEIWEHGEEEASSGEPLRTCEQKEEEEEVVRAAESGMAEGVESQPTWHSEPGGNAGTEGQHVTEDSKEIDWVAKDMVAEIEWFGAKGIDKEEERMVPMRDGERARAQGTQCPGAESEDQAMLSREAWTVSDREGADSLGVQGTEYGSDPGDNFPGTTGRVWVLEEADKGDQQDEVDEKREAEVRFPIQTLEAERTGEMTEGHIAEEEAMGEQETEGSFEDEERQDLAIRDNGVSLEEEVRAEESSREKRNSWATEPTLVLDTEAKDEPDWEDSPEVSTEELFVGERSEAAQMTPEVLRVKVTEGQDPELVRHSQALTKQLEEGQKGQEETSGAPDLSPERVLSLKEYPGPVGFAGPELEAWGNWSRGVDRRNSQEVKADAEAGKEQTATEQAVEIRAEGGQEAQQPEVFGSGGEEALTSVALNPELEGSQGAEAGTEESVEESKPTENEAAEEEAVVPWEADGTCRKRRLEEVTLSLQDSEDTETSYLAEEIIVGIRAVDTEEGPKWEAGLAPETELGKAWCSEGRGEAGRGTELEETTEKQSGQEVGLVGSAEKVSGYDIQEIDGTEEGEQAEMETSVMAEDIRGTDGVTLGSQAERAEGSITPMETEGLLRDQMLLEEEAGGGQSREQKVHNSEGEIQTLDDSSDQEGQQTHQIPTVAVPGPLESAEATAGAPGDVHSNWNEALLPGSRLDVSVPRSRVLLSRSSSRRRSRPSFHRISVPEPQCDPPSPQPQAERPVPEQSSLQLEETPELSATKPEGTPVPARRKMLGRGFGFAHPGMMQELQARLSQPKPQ
UniProt Q8VCI7: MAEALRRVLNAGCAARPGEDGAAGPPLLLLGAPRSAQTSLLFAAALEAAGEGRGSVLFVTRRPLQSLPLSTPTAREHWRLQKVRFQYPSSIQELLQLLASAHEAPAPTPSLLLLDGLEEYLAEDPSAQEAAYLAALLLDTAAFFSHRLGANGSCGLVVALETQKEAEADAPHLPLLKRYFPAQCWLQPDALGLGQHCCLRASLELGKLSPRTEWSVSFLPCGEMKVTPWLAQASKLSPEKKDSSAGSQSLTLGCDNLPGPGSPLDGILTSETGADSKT

compound: CN[C@@H]1C[C@H]2O[C@@](C)([C@@H]1OC)n1c3ccccc3c3c4c(c5c6ccccc6n2c5c31)C(=O)NC4 [staurosporine]; assay: log2 fold change of tryptic peptide abundance, ligand vs vehicle (limited proteolysis) (log2 ratio); higher = more trypsin-susceptible (destabilized); conditions: ligand concentration: 20 uM; sample: mouse liver crude lysate; replicate design: treated separately

Target | log2 fold change
UniProt Q8VE22 (peptide sequence: FFATYGSGQK, peptide start residue: 74) | -0.0808
UniProt Q8VBZ0 (peptide sequence: YLRDEAEAEPLGTAR, peptide start residue: 293) | -0.33
UniProt Q8VDK3 (peptide sequence: KNDRMTYEK, peptide start residue: 208) | -0.0698
UniProt Q8VDQ8 (peptide sequence: ELEDLVR, peptide start residue: 340) | -0.492
UniProt Q8VEJ1 (peptide sequence: MDLIEHYGK, peptide start residue: 180) | 0.117
UniProt Q8VCI0 (peptide sequence: VADIFLASQYK, peptide start residue: 495) | -0.25
UniProt Q8VCY6 (peptide sequence: KDEIEYSMVHR, peptide start residue: 81) | 0.111
UniProt Q8VEH5 (peptide sequence: MVGLTTTHTLR, peptide start residue: 242) | 0.373
UniProt Q8VD33 (peptide sequence: LSHYTDAIKDCEK, peptide start residue: 132) | -0.553
UniProt Q8R3N1 (peptide sequence: HTSADDLNDGFILDKDDRR, peptide start residue: 309) | -0.15
UniProt Q8R5A3 (peptide sequence: ASGIYYVPK, peptide start residue: 339) | -0.375
UniProt Q8VC49 (peptide sequence: EPQEPQELQK, peptide start residue: 238) | 0.0785
UniProt Q8R331 (peptide sequence: QLEALENDNFQDDPHAGLPQLGKR, peptide start residue: 31) | -0.365
UniProt Q8VDV8 (peptide sequence: ISGYMDRAENIKK, peptide start residue: 65) | 0.313
UniProt Q8VE04 (peptide sequence: ELEPLKEMTTR, peptide start residue: 203) | -0.155
UniProt Q8R3L5 (peptide sequence: SGELQGDEAQR, peptide start residue: 15) | 0.0592

Target | log2 fold change
UniProt Q8VC04 (peptide sequence: AVSQLTSR, peptide start residue: 4) | 0.054
UniProt Q8VCC6 (peptide sequence: HAGGGAGKPGGSWER, peptide start residue: 251) | 0.846
UniProt Q8R2U2 (peptide sequence: EKPLGFDLR, peptide start residue: 306) | -0.171
UniProt Q8VCI5 (peptide sequence: YQQQHSVMVK, peptide start residue: 218) | 0.256
UniProt Q8VD66 (peptide sequence: TLHTFDLLGFGR, peptide start residue: 96) | -0.378
UniProt Q8R3B1 (peptide sequence: CFSIVFKDQR, peptide start residue: 96) | -0.265
UniProt Q8VBT6 (peptide sequence: GTDGVTLGSQAER, peptide start residue: 733) | -0.253
UniProt Q8R2Y0 (peptide sequence: SISNSQVEVLENCGHSVVMERPR, peptide start residue: 292) | -0.635
UniProt Q8VCB1 (peptide sequence: MYSSYSVEPK, peptide start residue: 394) | -0.201
UniProt Q8VDQ1 (peptide sequence: TLYLSVDPYMR, peptide start residue: 43) | 0.248
UniProt Q8VCI7 (peptide sequence: VTPWLAQASK, peptide start residue: 226) | -0.0785
UniProt Q8VEG4 (peptide sequence: HFPIEMK, peptide start residue: 471) | 0.596
UniProt Q8VCM5 (peptide sequence: SCVFLECGHVCSCR, peptide start residue: 311) | 0.19
UniProt Q8R2U7 (peptide sequence: KAAQYFYQNR, peptide start residue: 332) | -0.225
UniProt Q8VCE2 (peptide sequence: KDMGSVALDPEAGK, peptide start residue: 297) | 0.557

A few values from the results shown.
Entry of UniProt Q8R2Y0 (peptide sequence: SISNSQVEVLENCGHSVVMERPR, peptide start residue: 292) under log2 fold change: -0.635
Entry of UniProt Q8VCE2 (peptide sequence: KDMGSVALDPEAGK, peptide start residue: 297) under log2 fold change: 0.557
